These are yes or no findings as the source states them, for the method shown. Binding seen in cells or lysates may run through a third protein. Some binding calls cover weakened binding; strength is not graded here.
Target: TRPC4β (UniProt Q9QUQ5)
Test: co-IP; TRPC4β and Gαi3 in HEK293 cells, with or without co-expressed PC1(FL); which protein was precipitated is not told

Amino acid sequences for entries named in this document (tags omitted). A change or cut given only in a name is not applied to a line headed by its entry. Chains listed by the source or under a name are the forms on record and can include a tag or linker.
TRPC4β (Q9QUQ5, form named): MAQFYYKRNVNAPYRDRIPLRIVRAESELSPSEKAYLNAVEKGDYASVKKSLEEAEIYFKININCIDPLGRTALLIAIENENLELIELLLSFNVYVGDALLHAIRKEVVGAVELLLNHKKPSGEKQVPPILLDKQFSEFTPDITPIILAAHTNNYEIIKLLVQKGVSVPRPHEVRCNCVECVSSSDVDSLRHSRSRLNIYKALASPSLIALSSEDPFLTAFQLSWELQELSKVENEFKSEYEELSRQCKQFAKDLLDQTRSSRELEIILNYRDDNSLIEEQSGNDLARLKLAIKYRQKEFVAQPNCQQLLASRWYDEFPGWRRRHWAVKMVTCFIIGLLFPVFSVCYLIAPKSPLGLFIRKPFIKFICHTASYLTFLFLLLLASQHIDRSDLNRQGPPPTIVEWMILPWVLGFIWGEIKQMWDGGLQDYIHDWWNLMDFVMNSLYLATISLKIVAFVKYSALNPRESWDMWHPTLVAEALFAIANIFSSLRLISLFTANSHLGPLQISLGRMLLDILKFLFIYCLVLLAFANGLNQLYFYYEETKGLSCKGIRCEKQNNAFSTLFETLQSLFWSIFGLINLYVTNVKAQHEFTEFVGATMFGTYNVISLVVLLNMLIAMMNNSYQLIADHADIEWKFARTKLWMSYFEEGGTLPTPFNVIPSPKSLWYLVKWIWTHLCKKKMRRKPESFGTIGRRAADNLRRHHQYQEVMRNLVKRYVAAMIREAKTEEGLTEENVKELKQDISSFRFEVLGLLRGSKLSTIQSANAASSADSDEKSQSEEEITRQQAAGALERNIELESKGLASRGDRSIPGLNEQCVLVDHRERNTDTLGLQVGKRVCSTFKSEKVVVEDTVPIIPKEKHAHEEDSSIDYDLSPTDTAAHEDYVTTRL
UniProt P08754: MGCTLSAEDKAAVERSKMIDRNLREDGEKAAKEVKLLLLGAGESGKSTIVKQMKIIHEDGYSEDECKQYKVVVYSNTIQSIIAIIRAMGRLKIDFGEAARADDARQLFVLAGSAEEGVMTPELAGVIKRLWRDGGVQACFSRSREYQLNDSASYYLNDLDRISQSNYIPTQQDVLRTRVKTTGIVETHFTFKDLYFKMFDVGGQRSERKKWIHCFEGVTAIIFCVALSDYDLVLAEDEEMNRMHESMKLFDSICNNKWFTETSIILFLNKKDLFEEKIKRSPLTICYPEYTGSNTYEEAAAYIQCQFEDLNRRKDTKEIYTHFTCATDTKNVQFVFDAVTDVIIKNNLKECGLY

binding: binds
Substance: Gαi3 (from UniProt P08754 1-354)
